Data set [1] can be described thus: Fluorescence of free (unbound) dyedron in solution. The note with it: total absorbance normalized fluorescence (530-800 nm) of dyedron divided by that of Cy3.29.
The test system of data set [2] is L5-MG E52D. The data set is classed as physicochemical, human. The note with it: L5-MG E52D activated dyedron. How it is done: Fluoromodules were assembled as above, and quantum yields based on the acceptor MG excitation band were determined as described using Cy5.18 as the calibration dye (Szent-Gyorgyi, C., et al., Nature Biotechnology 2008, 26, 235-240). Quantum yields determined with 620 nm excitation (Table 2) were essentially the same as unreported quantum yields determined with 590 nm excitation (<5% difference).

The subject of data set [3] is L5-MG E52D. It counts as physicochemical, human. The note with it: soluble dyedron/L5-MG E52D complex.
For data set [4], the system named is L5-MG E52D. It counts as physicochemical, human. The note with it: PBS+.
A short description of data set [5]: Donor array fluorescence of Cy3-labeled cystamine core PAMAM dendrimers. It counts as physicochemical. The following applies: per-dye quantum efficiency relative to free dye. How it is done: To test the impact of high loading on donor array fluorescence, two cystamine core PAMAM dendrimers (Gen2-16 NH2 and Gen3-32 NH2) were labeled with an excess of monoreactive Cy3-NHS ester. After removal of excess dye by gel filtration the resulting macromolecules were analyzed by electrophoresis, and found to have low net mobility. Because each Cy3 molecule carries one net negative charge, a fully modified dendron should have a net charge of −2. […] However, these conjugates allow for the assessment of the potential risk of donor quenching.

The results in this text go back to patent US9249306B2, “Quenched dendrimeric dyes for florescence detection” (Carnegie Mellon University, priority 2009, dated 2016).

Structures are written as SMILES. Values joined by “and” are separate entries in the source; they are usually repeats but may differ in a detail not shown here. Identical values can stand only once. Like-named read-outs stand apart in the source and are kept apart here.

`CC[N+]1=C(/C=C/C=C2/N(CCCCCC(=O)NCC(CNC(=O)CCCCCN3/C(=C/C=C/C4=[N+](CC)c5ccc(S(=O)(=O)O)cc5C4(C)C)C(C)(C)c4cc(S(=O)(=O)[O-])ccc43)OCC(=O)NCCCOc3ccc(C(=C4C=CC(=[N+](C)C)C=C4)c4ccc(N(C)C)cc4)cc3)c3ccc(S(=O)(=O)[O-])cc3C2(C)C)C(C)(C)c2cc(S(=O)(=O)[O-])ccc21` (stereo not drawn) [BCM] came in with a Fquenched/Ffree in data set [1] of 0.0036. Besides, in the data set with L5-MG E52D [2], the “ε × φ/10^3 (brightness)” value came to 14. In the data set on L5-MG E52D [3], this compound came in with an F532/F635 of 2.86. The “factor increase of MG band absorbance when binding to L5-MG E52D” value (from here on “factor increase of MG band absorbance”) in the data set on L5-MG E52D [4] is listed as 1.93.

Compound `CCN1/C(=C\C=C\C2=[N+](CCCCCC(=O)NCCNC(=O)CCCOc3ccc(C(=C4C=CC(=[N+](C)C)C=C4)c4ccc(N(C)C)cc4)cc3)c3ccc(S(=O)(=O)[O-])cc3C2(C)C)C(C)(C)c2cc(S(=O)(=O)[O-])ccc21` [CM, 1-{6-[(2-{[4-(4-{[4-(dimethylamino)phenyl][4-(dimethyliminio)cyclohexa-2,5-dien-1-ylidene]methyl}phenoxy)butanoyl]amino}ethyl)amino]-6-oxohexyl}-2-[(1E,3Z)-3-(1-ethyl-3,3-dimethyl-5-sulfonato-1,3-dihydro-2H-indol-2-ylidene)prop-1-en-1-yl]-3,3-dimethyl-3H-indolium-5-sulfonate] gave a Fquenched/Ffree in data set [1] of 0.0084. For the same compound, the “ε × φ/10^3 (brightness)” value in the data set on L5-MG E52D [2] was determined as 8.0. Also, the F532/F635 with L5-MG E52D [3] amounted to 1.54. Also, in the data set on L5-MG E52D [4], the “factor increase of MG band absorbance” value was 1.78.

`CCN1/C(=C\C=C\C2=[N+](CCCCCC(=O)O)c3ccc(S(=O)(=O)O)cc3C2(C)C)C(C)(C)c2cc(S(=O)(=O)[O-])ccc21` [Cy3]: the “F dendrimer / F free” value in data set [5] amounted to 1.

For the compound `CN(C)c1ccc(C(=C2C=CC(=[N+](C)C)C=C2)c2ccc(OCCCC(=O)NCCNC(=O)CCC(=O)NCCOCCOCCN)cc2)cc1` [M, malachite green diethyleneglycolamine], in the data set on L5-MG E52D [2], the “ε × φ/10^3 (brightness)” value was 4.4. In the data set with L5-MG E52D [3], the F532/F635 is 0.05. In the data set on L5-MG E52D [4] (listed as MG-2p), the “factor increase of MG band absorbance” value was 1.56 and ~2.
